{"source": "patent US11215608B2", "about": "“Methods of determining cellular chemosensitivity” (Dana-Farber Cancer Institute, Inc., priority 2006, dated 2022)", "tested_on": "2B4 cells", "test": "2B4 cell viability with dexamethasone by Annexin V", "assay_type": "cell-based, murine", "conditions": "24 hours", "from_the_text": "Cells were stained with fluorescent conjugates of Annexin-V (BioVision) and propidium iodide (PI) and analyzed on a FACSCalibur machine (Becton-Dickinson).", "note": "For at least one compound, name, drawing or mass did not settle the structure."}
{"smiles": "C[C@@H]1C[C@H]2[C@@H]3CCC4=CC(=O)C=C[C@]4(C)[C@@]3(F)[C@@H](O)C[C@]2(C)[C@@]1(O)C(=O)CO", "note": "[dexamethasone]", "values": [{"measurement": "sensitivity of the 2B4 cell line", "result": "sensitive to dexamethasone treatment"}]}
